This note sets out measurements from publication PMC6052134.

Chains of the proteins cited; added tags and fusions are not shown.
UniProt P31414: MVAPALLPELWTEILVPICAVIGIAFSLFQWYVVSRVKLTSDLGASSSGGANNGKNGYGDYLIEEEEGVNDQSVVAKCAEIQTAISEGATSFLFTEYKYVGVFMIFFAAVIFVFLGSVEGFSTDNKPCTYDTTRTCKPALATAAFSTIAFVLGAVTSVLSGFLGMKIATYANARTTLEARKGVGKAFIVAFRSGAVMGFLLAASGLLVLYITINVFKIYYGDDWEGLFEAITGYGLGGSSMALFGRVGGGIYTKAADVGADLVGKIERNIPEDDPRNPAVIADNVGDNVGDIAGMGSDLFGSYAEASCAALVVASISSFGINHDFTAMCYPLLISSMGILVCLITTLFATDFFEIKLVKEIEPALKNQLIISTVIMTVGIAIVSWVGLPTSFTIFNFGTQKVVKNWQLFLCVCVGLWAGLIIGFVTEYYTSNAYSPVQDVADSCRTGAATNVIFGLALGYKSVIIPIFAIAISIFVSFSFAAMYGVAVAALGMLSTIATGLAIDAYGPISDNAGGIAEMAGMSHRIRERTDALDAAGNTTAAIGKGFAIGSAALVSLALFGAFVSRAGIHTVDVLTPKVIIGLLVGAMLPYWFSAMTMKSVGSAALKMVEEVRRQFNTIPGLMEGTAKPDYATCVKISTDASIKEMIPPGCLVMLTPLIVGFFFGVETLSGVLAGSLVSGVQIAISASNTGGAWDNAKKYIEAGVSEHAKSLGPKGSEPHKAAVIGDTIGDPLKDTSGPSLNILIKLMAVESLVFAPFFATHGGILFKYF
UniProt P29513: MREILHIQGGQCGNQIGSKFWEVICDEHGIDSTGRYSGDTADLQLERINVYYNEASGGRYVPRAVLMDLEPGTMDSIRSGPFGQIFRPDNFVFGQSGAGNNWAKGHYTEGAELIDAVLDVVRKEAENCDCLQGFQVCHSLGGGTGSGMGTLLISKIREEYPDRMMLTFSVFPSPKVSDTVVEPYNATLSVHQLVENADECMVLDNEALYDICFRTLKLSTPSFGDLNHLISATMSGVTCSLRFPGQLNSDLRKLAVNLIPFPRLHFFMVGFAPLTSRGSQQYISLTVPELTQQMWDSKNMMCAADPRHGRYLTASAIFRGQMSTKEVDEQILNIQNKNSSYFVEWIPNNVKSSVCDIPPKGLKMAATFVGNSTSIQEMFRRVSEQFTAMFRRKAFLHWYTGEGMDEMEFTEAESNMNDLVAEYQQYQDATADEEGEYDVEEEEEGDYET

The chains are these.
B1: Glyceraldehyde-3-phosphate dehydrogenase (protein, UniProt P25856 61-396)
chain: KLKVAINGFGRIGRNFLRCWHGRKDSPLDIIAINDTGGVKQASHLLKYDSTLGIFDADVKPSGETAISVDGKIIQVVSNRNPSLLPWKELGIDIVIEGTGVFVDREGAGKHIEAGAKKVIITAPGKGDIPTYVVGVNADAYSHDEPIISNASCTTNCLAPFVKVLDQKFGIIKGTMTTTHSYTGDQRLLDASHRDLRRARAAALNIVPTSTGAAKAVALVLPNLKGKLNGIALRVPTPNVSVVDLVVQVSKKTFAEEVNAAFRDSAEKELKGILDVCDEPLVSVDFRCSDFSTTIDSSLTMVMGDDMVKVIAWYDNEWGYSQRVVDLADIVANNWK
B2: Carbonic anhydrase 2, chloroplastic (protein, UniProt P42737 72-331)
chain: RMGNESYEDAIEALKKLLIEKDDLKDVAAAKVKKITAELQAASSSDSKSFDPVERIKEGFVTFKKEKYETNPALYGELAKGQSPKYMVFACSDSRVCPSHVLDFHPGDAFVVRNIANMVPPFDKVKYAGVGAAIEYAVLHLKVENIVVIGHSACGGIKGLMSFPLDGNNSTDFIEDWVKICLPAKSKVLAESESSAFEDQCGRCEREAVNVSLANLLTYPFVREGVVKGTLALKGGYYDFVNGSFELWELQFGISPVHSI
B3: Syntaxin-71 (protein, UniProt Q9SF29 1-266)
chain: MTVIDILTRVDSICKKYDKYDVDKQREANISGDDAFARLYGAFETQIETALEKAELVTKEKNRAAAVAMNAEIRRTKARLSEEVPKLQRLAVKRVKGLTTEELAARNDLVLALPARIEAIPDGTAGGPKSTSAWTPSSTTSRPDIKFDSDGRFDDDYFQESNESSQFRQEYEMRKIKQEQGLDMISEGLDALKNMASDMNEELDRQVPLMDEIDTKVDRATSDLKNTNVRLKDTVNQLRSSRNFCIDIVLLCIVLGIAAYLYNVLK
B4: Hypersensitive-induced response protein 2 (protein, UniProt Q9SRH6 1-285)
chain: MGNLFCCVLVKQSDVAVKERFGKFQKVLNPGLQFVPWVIGDYVAGTLTLRLQQLDVQCETKTKDNVFVTVVASIQYRVLADKASDAFYRLSNPTTQIKAYVFDVIRACVPKLNLDDVFEQKNEIAKSVEEELDKAMTAYGYEILQTLIIDIEPDQQVKRAMNEINAAARMRVAASEKAEAEKIIQIKRAEGEAESKYLSGLGIARQRQAIVDGLRDSVLGFAGNVPGTSAKDVLDMVMMTQYFDTMRDIGATSKSSAVFIPHGPGAVSDVAAQIRNGLLQANNAS
B5: Aquaporin PIP1-2 (protein, UniProt Q06611 1-286)
chain: MEGKEEDVRVGANKFPERQPIGTSAQSDKDYKEPPPAPLFEPGELASWSFWRAGIAEFIATFLFLYITVLTVMGVKRSPNMCASVGIQGIAWAFGGMIFALVYCTAGISGGHINPAVTFGLFLARKLSLTRAVYYIVMQCLGAICGAGVVKGFQPKQYQALGGGANTIAHGYTKGSGLGAEIIGTFVLVYTVFSATDAKRNARDSHVPILAPLPIGFAVFLVHLATIPITGTGINPARSLGAAIIFNKDNAWDDHWVFWVGPFIGAALAALYHVIVIRAIPFKSRS
B6: Harpin-induced protein-like (protein, UniProt Q9FNH6 1-231)
chain: MADLNGAYYGPSIPPPKKVSHSHGRRGGGCGCLGDCLGCCGCCILSVIFNILITIAVLLGIAALIIWLIFRPNAIKFHVTDAKLTEFTLDPTNNLRYNLDLNFTIRNPNRRIGVYYDEIEVRGYYGDQRFGMSNNISKFYQGHKNTTVVGTKLVGQQLVLLDGGERKDLNEDVNSQIYRIDAKLRLKIRFKFGLIKSWRFKPKIKCDLKVPLTSNSTSGFVFQPTKCDVDF
B7: Early-responsive to dehydration stress protein (protein, UniProt Q9C8G5 1-724)
chain: MEFGSFLVSLGTSFVIFVILMLLFTWLSRKSGNAPIYYPNRILKGLEPWEGTSLTRNPFAWMREALTSSEQDVVNLSGVDTAVHFVFLSTVLGIFACSSLLLLPTLLPLAATDNNIKNTKNATDTTSKGTFSQLDNLSMANITKKSSRLWAFLGAVYWISLVTYFFLWKAYKHVSSLRAQALMSADVKPEQFAILVRDMPAPPDGQTQKEFIDSYFREIYPETFYRSLVATENSKVNKIWEKLEGYKKKLARAEAILAATNNRPTNKTGFCGLVGKQVDSIEYYTELINESVAKLETEQKAVLAEKQQTAAVVFFTTRVAAASAAQSLHCQMVDKWTVTEAPEPRQLLWQNLNIKLFSRIIRQYFIYFFVAVTILFYMIPIAFVSAITTLKNLQRIIPFIKPVVEITAIRTVLESFLPQIALIVFLAMLPKLLLFLSKAEGIPSQSHAIRAASGKYFYFSVFNVFIGVTLAGTLFNTVKDIAKNPKLDMIINLLATSLPKSATFFLTYVALKFFIGYGLELSRIIPLIIFHLKKKYLCKTEAEVKEAWYPGDLSYATRVPGDMLILTITFCYSVIAPLILIFGITYFGLGWLVLRNQALKVYVPSYESYGRMWPHIHQRILAALFLFQVVMFGYLGAKTFFYTALVIPLIITSLIFGYVCRQKFYGGFEHTALEVACRELKQSPDLEEIFRAYIPHSLSSHKPEEHEFKGAMSRYQDFNAIAGV
B8: 5-methyltetrahydropteroyltri-glutamate-homocysteine methyltransferase 1 (protein, UniProt O50008 1-765)
chain: MASHIVGYPRMGPKRELKFALESFWDGKSTAEDLQKVSADLRSSIWKQMSAAGTKFIPSNTFAHYDQVLDTTAMLGAVPPRYGYTGGEIGLDVYFSMARGNASVPAMEMTKWFDTNYHYIVPELGPEVNFSYASHKAVNEYKEAKALGVDTVPVLVGPVSYLLLSKAAKGVDKSFELLSLLPKILPIYKEVITELKAAGATWIQLDEPVLVMDLEGQKLQAFTGAYAELESTLSGLNVLVETYFADIPAEAYKTLTSLKGVTAFGFDLVRGTKTLDLVKAGFPEGKYLFAGVVDGRNIWANDFAASLSTLQALEGIVGKDKLVVSTSCSLLHTAVDLINETKLDDEIKSWLAFAAQKVVEVNALAKALAGQKDEALFSANAAALASRRSSPRVTNEGVQKAAAALKGSDHRRATNVSARLDAQQKKLNLPILPTTTIGSFPQTVELRRVRREYKAKKVSEEDYVKAIKEEIKKVVDLQEELDIDVLVHGEPERNDMVEYFGEQLSGFAFTANGWVQSYGSRCVKPPVIYGDVSRPKAMTVFWSAMAQSMTSRPMKGMLTGPVTILNWSFVRNDQPRHETCYQIALAIKDEVEDLEKGGIGVIQIDEAALREGLPLRKSEHAFYLDWAVHSFRITNCGVQDSTQIHTHMCYSHFNDIIHSIIDMDADVITIENSRSDEKLLSVFREGVKYGAGIGPGVYDIHSPRIPSSEEIADRVNKMLAVLEQNILWVNPDCGLKTRKYTEVKPALKNMVDAAKLIRSQLASAK
B9: Photosystem I reaction center subunit II-2, chloroplastic (protein, UniProt Q9SA56 45-204)
chain: EKTESSSAAPAVKEAPVGFTPPQLDPNTPSPIFAGSTGGLLRKAQVEEFYVITWNSPKEQIFEMPTGGAAIMREGPNLLKLARKEQCLALGTRLRSKYKITYQFYRVFPNGEVQYLHPKDGVYPEKANPGREGVGLNMRSIGKNVSPIEVKFTGKQSYDL

These are yes or no findings as the source states them, for the method shown. Binding seen in cells or lysates may run through a third protein. These calls come from enrichment with a bait or labelling near it, and not all partners need be listed. Tags and fused reporters may be left off the sequences shown.

In the first experiment the target is T1, Arabidopsis thaliana flotillin 2 fused to GFP (Flot2-GFP) (A. thaliana) (UniProt Q4V3D6).
T1 sequence: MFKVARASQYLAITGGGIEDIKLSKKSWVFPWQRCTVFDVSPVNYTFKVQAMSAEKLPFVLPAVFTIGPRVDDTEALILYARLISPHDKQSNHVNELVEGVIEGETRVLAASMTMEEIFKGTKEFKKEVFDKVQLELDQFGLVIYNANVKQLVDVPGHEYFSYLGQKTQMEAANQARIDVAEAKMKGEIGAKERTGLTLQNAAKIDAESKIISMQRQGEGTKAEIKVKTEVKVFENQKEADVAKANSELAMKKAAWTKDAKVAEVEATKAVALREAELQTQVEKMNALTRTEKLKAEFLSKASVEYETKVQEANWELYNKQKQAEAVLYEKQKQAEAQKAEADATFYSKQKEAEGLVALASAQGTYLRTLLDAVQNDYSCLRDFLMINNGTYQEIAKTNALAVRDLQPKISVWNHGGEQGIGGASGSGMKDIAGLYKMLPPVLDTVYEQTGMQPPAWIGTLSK
Nature of the experiment: affinity purification with mass spectrometry; anti-GFP immunoprecipitation (mouse monoclonal on Dynabeads Protein A) of the DSP cross-linked microsomal fraction of AtFlot2-GFP leaves, dissolved with 0.5% sodium deoxycholate; RIPA washes; LC-MS/MS; nine repetitions; WT plants as control.
For the molecule “Ubiquitin-60S ribosomal protein L40-1 (A. thaliana (endogenous in leaves))”, the binding result is listed as “binds”.

In the case of B1, the binding result was “binds”.

For the next experiment, the target named is T1, Arabidopsis thaliana flotillin 2 fused to GFP (Flot2-GFP) (A. thaliana). Nature of the experiment: affinity purification with mass spectrometry; anti-GFP immunoprecipitation (mouse monoclonal on Dynabeads Protein A) of the plasma membrane fraction (PEG/dextran two-phase system) isolated from the DSP cross-linked microsomal fraction of AtFlot2-GFP leaves, dissolved with 0.5% sodium deoxycholate; RIPA washes; LC-MS/MS; nine repetitions; WT plants as control.
As to “Ubiquitin-60S ribosomal protein L40-1 (A. thaliana (endogenous in leaves))”, the binding result is “binds”.

Turning to “Pyrophosphate-energized vacuolar membrane proton pump 1 (from UniProt P31414 1-770)”, the binding result is “binds”.

In the case of “Tubulin beta-5 chain (from UniProt P29513 1-449)”, the binding entry is recorded as “binds”.

Turning to B2, the binding entry is on record as “binds”.

For the molecule B3, the binding result was “binds”.

B4: the binding result is listed as “binds”.

As to B5, the binding entry is listed as “binds”.

In the case of B6, the binding entry is reported as “binds”.

With B7, the binding entry is recorded as “binds”.

Consider B8, for which the binding entry is listed as “binds”.

For B9, the binding entry is given as “binds”.
